Source: patent publication US20230372302A1 (priority 2019, published 2023)

Protein sequences, listed by entry. Tags and fused reporters are not part of them.
UniProt Q05940, whole entry: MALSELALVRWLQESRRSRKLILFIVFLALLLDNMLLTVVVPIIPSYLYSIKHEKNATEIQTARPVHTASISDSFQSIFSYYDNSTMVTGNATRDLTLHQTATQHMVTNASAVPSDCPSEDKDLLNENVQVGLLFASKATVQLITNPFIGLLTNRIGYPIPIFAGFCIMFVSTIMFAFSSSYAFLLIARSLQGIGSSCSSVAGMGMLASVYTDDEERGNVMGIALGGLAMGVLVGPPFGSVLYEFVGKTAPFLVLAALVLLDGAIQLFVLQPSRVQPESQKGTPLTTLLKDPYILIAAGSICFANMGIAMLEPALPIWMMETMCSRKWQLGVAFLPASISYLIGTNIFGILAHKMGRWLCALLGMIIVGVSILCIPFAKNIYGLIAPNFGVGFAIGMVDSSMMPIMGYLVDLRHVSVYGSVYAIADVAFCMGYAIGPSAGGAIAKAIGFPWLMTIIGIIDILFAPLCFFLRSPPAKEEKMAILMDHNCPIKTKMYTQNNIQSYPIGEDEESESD

Legend:
[1] = test system: vocal cords and respiratory muscles of rats; conditions: rat, in vivo
[2] = biological target: T1, recombinant human VMAT2 transporters (Homo sapiens, UniProt Q05940); assay type: binding
T1 construct: expressed in transfected cells; host or cells: HEK-293

CN1CC[C@]23c4c5ccc(O)c4O[C@H]2[C@@H](O)C=C[C@H]3[C@H]1C5 [morphine]
vocal cord closure and chest wall rigidity effect (specific to F/FA) [1]: not demonstrated
binding to VMAT2 transporter [2]: not morphine
